# The supplement of paper PMC8728848
# This is one part of the list.
# Tests used:
# Assay in all cases: glycan array binding signal (z-score within array); higher = stronger binding
# Conditions in all cases: glycan notation: IUPAC condensed, linker removed
# [1] = biological target: Neu5Ac(a2-6)Gal(b1-4)GlcNAc(b1-2)Man(a1-3)[Man(a1-6)]Man(b1-4)GlcNAc(b1-4)GlcNAc
# Procedure, shortened: (§1)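 Negative Z-scores can be read as non-binding. The Z-score is calculated within each array and then averaged across arrays of one protein sequence at different concentrations or buffers and across linkers. Arrays, 3228 in all, were curated from the Consortium for Functional Glycomics database and kept only where the protein sequence was available.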
# [2] = biological target: Neu5Ac(a2-6)Gal(b1-4)GlcNAc(b1-2)Man(a1-3)[Neu5Ac(a2-3)Gal(b1-4)GlcNAc(b1-2)Man(a1-6)]Man(b1-4)GlcNAc(b1-4)GlcNAc
# Procedure, shortened: as §1
# [3] = biological target: Neu5Ac(a2-6)Gal(b1-4)GlcNAc(b1-2)Man(a1-3)[Neu5Ac(a2-6)Gal(b1-4)GlcNAc(b1-2)Man(a1-6)]Man(b1-4)GlcNAc(b1-4)GlcNAc
# Procedure, shortened: as §1
# [4] = biological target: Neu5Ac(a2-6)Gal(b1-4)GlcNAc(b1-2)Man(a1-3)[Neu5Ac(a2-6)Gal(b1-4)GlcNAc(b1-2)Man(a1-6)]Man(b1-4)GlcNAc(b1-4)[Fuc(a1-6)]GlcNAc
# Procedure, shortened: as §1
# [5] = biological target: Neu5Ac(a2-6)Gal(b1-4)GlcNAc(b1-2)Man(a1-6)Man(b1-4)GlcNAc(b1-4)GlcNAc
# Procedure, shortened: as §1
# [6] = biological target: Neu5Ac(a2-6)Gal(b1-4)GlcNAc(b1-2)Man(a1-6)[Gal(b1-4)GlcNAc(b1-2)Man(a1-3)]Man(b1-4)GlcNAc(b1-4)GlcNAc
# Procedure, shortened: as §1
# [7] = biological target: Neu5Ac(a2-6)Gal(b1-4)GlcNAc(b1-2)Man(a1-6)[GlcNAc(b1-2)Man(a1-3)]Man(b1-4)GlcNAc(b1-4)GlcNAc
# Procedure, shortened: as §1
# [8] = biological target: Neu5Ac(a2-6)Gal(b1-4)GlcNAc(b1-2)Man(a1-6)[Man(a1-3)]Man(b1-4)GlcNAc(b1-4)GlcNAc
# Procedure, shortened: as §1
# [9] = biological target: Neu5Ac(a2-6)Gal(b1-4)GlcNAc(b1-2)[Neu5Ac(a2-6)Gal(b1-4)GlcNAc(b1-4)]Man(a1-3)[GlcNAc(b1-4)][Neu5Ac(a2-6)Gal(b1-4)GlcNAc(b1-2)[Neu5Ac(a2-6)Gal(b1-4)GlcNAc(b1-6)]Man(a1-6)]Man(b1-4)GlcNAc(b1-4)GlcNAc
# Procedure, shortened: as §1
# [10] = biological target: Neu5Ac(a2-6)Gal(b1-4)GlcNAc(b1-2)[Neu5Ac(a2-6)Gal(b1-4)GlcNAc(b1-4)]Man(a1-3)[GlcNAc(b1-4)][Neu5Ac(a2-6)Gal(b1-4)GlcNAc(b1-4)Man(a1-6)]Man(b1-4)GlcNAc(b1-4)GlcNAc
# Procedure, shortened: as §1
# [11] = biological target: Neu5Ac(a2-6)Gal(b1-4)GlcNAc(b1-2)[Neu5Ac(a2-6)Gal(b1-4)GlcNAc(b1-6)]Man(a1-6)[Neu5Ac(a2-6)Gal(b1-4)GlcNAc(b1-2)Man(a1-3)][GlcNAc(b1-4)]Man(b1-4)GlcNAc(b1-4)GlcNAc
# Procedure, shortened: as §1
# [12] = biological target: Neu5Ac(a2-6)Gal(b1-4)GlcNAc(b1-3)Gal(b1-3)GlcNAc
# Procedure, shortened: as §1
# [13] = biological target: Neu5Ac(a2-6)Gal(b1-4)GlcNAc(b1-3)Gal(b1-4)GlcNAc
# Procedure, shortened: as §1
# [14] = biological target: Neu5Ac(a2-6)Gal(b1-4)GlcNAc(b1-3)Gal(b1-4)GlcNAc(b1-2)Man(a1-3)[Neu5Ac(a2-6)Gal(b1-4)GlcNAc(b1-3)Gal(b1-4)GlcNAc(b1-2)Man(a1-6)]GalNAc
# Procedure, shortened: as §1
# [15] = biological target: Neu5Ac(a2-6)Gal(b1-4)GlcNAc(b1-3)Gal(b1-4)GlcNAc(b1-3)Gal(b1-4)GlcNAc
# Procedure, shortened: as §1
# [16] = biological target: Neu5Ac(a2-6)Gal(b1-4)GlcNAc(b1-3)Gal(b1-4)GlcNAc(b1-3)Gal(b1-4)GlcNAc(b1-2)Man(a1-3)[Neu5Ac(a2-6)Gal(b1-4)GlcNAc(b1-3)Gal(b1-4)GlcNAc(b1-3)Gal(b1-4)GlcNAc(b1-2)Man(a1-6)]GalNAc
# Procedure, shortened: as §1
# [17] = biological target: Neu5Ac(a2-6)Gal(b1-4)GlcNAc(b1-3)Gal(b1-4)GlcNAc(b1-3)GalNAc
# Procedure, shortened: as §1
# [18] = biological target: Neu5Ac(a2-6)Gal(b1-4)GlcNAc(b1-3)Gal(b1-4)GlcNAc(b1-3)[Neu5Ac(a2-6)Gal(b1-4)GlcNAc(b1-3)Gal(b1-4)GlcNAc(b1-6)]GalNAc
# Procedure, shortened: as §1
# [19] = biological target: Neu5Ac(a2-6)Gal(b1-4)GlcNAc(b1-3)Gal(b1-4)GlcNAc(b1-6)[Gal(b1-3)]GalNAc
# Procedure, shortened: as §1
# [20] = biological target: Neu5Ac(a2-6)Gal(b1-4)GlcNAc(b1-3)Gal(b1-4)[Fuc(a1-3)]GlcNAc(b1-3)Gal(b1-4)[Fuc(a1-3)]GlcNAc
# Procedure, shortened: as §1
# [21] = biological target: Neu5Ac(a2-6)Gal(b1-4)GlcNAc(b1-3)GalNAc
# Procedure, shortened: as §1
# [22] = biological target: Neu5Ac(a2-6)Gal(b1-4)GlcNAc(b1-3)[Neu5Ac(a2-6)Gal(b1-4)GlcNAc(b1-6)]GalNAc
# Procedure, shortened: as §1
# [23] = biological target: Neu5Ac(a2-6)Gal(b1-4)GlcNAc(b1-6)GalNAc
# Procedure, shortened: as §1
# [24] = biological target: Neu5Ac(a2-6)Gal(b1-4)GlcNAc(b1-6)[Gal(b1-3)GlcNAc(b1-3)]Gal(b1-4)Glc
# Procedure, shortened: as §1
# [25] = biological target: Neu5Ac(a2-6)Gal(b1-4)GlcNAc(b1-6)[Gal(b1-3)]GalNAc
# Procedure, shortened: as §1
# [26] = biological target: Neu5Ac(a2-6)Gal(b1-4)GlcNAc6S
# Procedure, shortened: as §1
# Neu5Ac(a2-6)GalNAc = biological target: Neu5Ac(a2-6)GalNAc
# Procedure, shortened: as §1
# [27] = biological target: Neu5Ac(a2-6)GalNAc(b1-4)GlcNAc
# Procedure, shortened: as §1
# [28] = biological target: Neu5Ac(a2-6)GalNAc(b1-4)GlcNAc6S
# Procedure, shortened: as §1
# [29] = biological target: Neu5Ac(a2-6)GlcNAc(b1-4)GlcNAc
# Procedure, shortened: as §1
# [30] = biological target: Neu5Ac(a2-6)GlcNAc(b1-4)GlcNAc(b1-4)GlcNAc
# Procedure, shortened: as §1
binder,measurement,setting,value
pilr alpha (protein) MLYGVTQPKHLSASMGGSVEIPFSFYYPWELATAPDVRISWRRGHFHRQSFYSTRPPSIHKDYVNRLFLNWTEGQKSGFLRISNLQKQDQSVYFCRVELDTRSSGRQQWQSIEGTKLSIT,glycan array binding signal (z-score),[1],-0.359
same,glycan array binding signal (z-score),[2],-0.588
same,glycan array binding signal (z-score),[3],0.135
same,glycan array binding signal (z-score),[4],0.206
same,glycan array binding signal (z-score),[5],0.961
same,glycan array binding signal (z-score),[6],0.767
same,glycan array binding signal (z-score),[7],-0.276
same,glycan array binding signal (z-score),[8],-0.475
same,glycan array binding signal (z-score),[9],-0.465
same,glycan array binding signal (z-score),[10],-0.01
same,glycan array binding signal (z-score),[11],0.09
same,glycan array binding signal (z-score),[12],-0.564
same,glycan array binding signal (z-score),[13],-0.317
same,glycan array binding signal (z-score),[14],-0.229
same,glycan array binding signal (z-score),[15],-0.453
same,glycan array binding signal (z-score),[16],1.89
same,glycan array binding signal (z-score),[17],-0.457
same,glycan array binding signal (z-score),[18],0.102
same,glycan array binding signal (z-score),[19],-0.479
same,glycan array binding signal (z-score),[20],1.16
same,glycan array binding signal (z-score),[21],-0.365
same,glycan array binding signal (z-score),[22],-0.456
same,glycan array binding signal (z-score),[23],-0.956
same,glycan array binding signal (z-score),[24],-0.839
same,glycan array binding signal (z-score),[25],-0.677
same,glycan array binding signal (z-score),[26],-0.249
same,glycan array binding signal (z-score),Neu5Ac(a2-6)GalNAc,-0.546
same,glycan array binding signal (z-score),[27],-0.492
same,glycan array binding signal (z-score),[28],-0.275
same,glycan array binding signal (z-score),[29],-0.813
same,glycan array binding signal (z-score),[30],-0.423
